# PubChem BioAssay AID2685 (National Center for Advancing Translational Sciences (NCATS), 2010)
# The other results are listed elsewhere or left out. These are further read-outs of the screen, such as a control signal, another cell line or another target. No call is given for them. Compounds called inactive in the main read-out are mostly missing here. Words in brackets tell the shape of the fitted curve; partial curves, single points and poor fits give uncertain potencies.
# Test: qHTS Assay for Lipid Storage Modulators in Drosophila S3 Cells;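 on cell number change: cells counted by Cell Tracker Red CMTPX staining in the red channel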
# Details: BODIPY lipid droplet fluorescence, 18-24 h; for cell number change: measured here: cell count max response, cells fed with added oleic acid
# Method in brief: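 Drosophila S3 cells loaded with oleic acid (400 uM, as added) and compounds at several concentrations; lipid droplets imaged by 488-nm laser-scanning cytometry, 500–530 nm intensity and object ratio to cell channel. Percent activity normalized to 20 uM Triacsin C.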
# [1] = measured here: cell number channel AC50, cells fed with added oleic acid
# [2] = measured here: lipid fluorescence (Fed channel) AC50, cells fed with added oleic acid
Structure (SMILES),AC50 [1],AC50 [2],cell number change [%]
COc1ccc(-c2cc(=O)c3ccccc3s2)cc1,"6.51 µM [rising, single point]","2.06 µM [falling, partial curve]",
Cc1c(Cl)c([N+](=O)[O-])nn1CC(=O)NC(C)C1CC2CCC1C2 (stereo not given),,"18.4 µM [falling, partial curve]",8.36
COc1cc(C(=O)N2CCN(C3CCC(C)CC3)CC2)cc(OC)c1OC (stereo not given),,"18.4 µM [rising, single point]",8.41
O=C(NCC1CCCO1)C(c1cccs1)N(C(=O)c1ccc(-c2ccccc2)[nH]1)C1CCCC1 (stereo not given),,"29.1 µM [falling, single point]",4.15
CCOc1ccccc1N1CCN(C(=O)COc2ccc3c(C)cc(=O)oc3c2)CC1,"2.06 µM [rising, single point]","1.64 µM [rising, single point]",-22.4
CCc1cccc(N(C(=O)c2csnn2)C(C(=O)NC2CCCC2)c2cccnc2)c1 (stereo not given),,"1.64 µM [rising, partial curve, poor fit]",12.5
CC1CCN(CCCNC(=O)CN2C(=O)CSc3ccc(S(=O)(=O)N4CCOCC4)cc32)CC1,,"0.00461 µM [falling, full curve, poor fit]",
COc1ccccc1-c1nnc(SCC(=O)Nc2nc(-c3ccccc3)cs2)n1C,,"0.517 µM [rising, full curve, poor fit]",10.8
CC1(C)C2CCC1(C)C(OC(=O)C[n+]1ccccc1)C2 (stereo not given),,"25.9 µM [falling, single point]",-19.3
COCc1cc(C)nc2sc(C(=O)NC3CCCCC3)c(N)c12,"0.58 µM [rising, full curve]","3.66 µM [rising, partial curve, poor fit]",
O=C(NCc1ccncc1)c1cccc(NS(=O)(=O)c2ccc(F)c(F)c2)c1,,,-15
CC1CCN(S(=O)(=O)c2nnc(NC(=O)COc3ccccc3)s2)CC1,,,22.7
Cc1cc(Nc2ccc(Cl)cc2)n(-c2cccc(Cl)c2)n1,,"6.51 µM [rising, single point]",27.2
COc1ccc(NC(=O)c2cccc(-n3cnnn3)c2)cc1,,"29.1 µM [falling, single point]",-6.44
CCCC(C)C(=O)Nc1ncc(S(=O)(=O)c2ccc([N+](=O)[O-])cc2)s1 (stereo not given),"25.9 µM [falling, single point]","8.2 µM [falling, partial curve, poor fit]",-31.9
CCCc1cc(C(=O)NCc2cccs2)no1,"29.1 µM [falling, single point]","0.116 µM [falling, full curve, poor fit]",-34.4
O=C(Nc1cccc(-c2nn[nH]n2)c1)c1ccc(Cl)s1,,"6.51 µM [rising, single point]",
COc1ccc(-c2sc3ccccc3c2C#CCO)cc1,,"0.13 µM [falling, full curve, poor fit]",-10.4
O=C(Cc1ccccc1)Nn1cnc2ccccc21,"0.366 µM [rising, full curve]",,31.6
N#CC1(P(=O)(c2ccccc2)c2ccccc2)CCCC1,,"0.58 µM [rising, single point]",2.17
CCN1CCN(c2cc(C)c3cc(NC(=O)CCC(=O)Nc4ccc(OC)c(OC)c4)ccc3n2)CC1,"1.03 µM [rising, full curve, poor fit]",,58.9
COc1cc(S(=O)(=O)NC2CCCCC2)ccc1Cl,"20.6 µM [falling, single point]","20.6 µM [falling, single point]",-31.6
O=C(CN1C(=O)NC2(CCCCC2)C1=O)NCCc1c[nH]c2ccccc12,,,24
CSCCC1NC(=O)NC1=O (stereo not given),,"1.16 µM [falling, full curve]",-1.07
O=C(COc1ccc(-n2cnnn2)cc1)Nc1ccccc1OC(F)F,,"0.00517 µM [falling, full curve, poor fit]",-0.564
O=C(CCNS(=O)(=O)c1ccccc1F)N1CCN(C(c2ccccc2)c2ccccc2)CC1,,"1.84 µM [falling, partial curve]",
O=C1CC(N2CCN(C/C=C/c3ccccc3)CC2)C(=O)N1Cc1ccc(N2CCCC2=O)cc1 (stereo not given),,"4.61 µM [falling, single point]",-6.8
COc1cc(NC(=O)C23CC4CC(C2)CC(n2cnc([N+](=O)[O-])n2)(C4)C3)cc(OC)c1,,"2.31 µM [rising, single point]",28.2

# Filtered by structure: those above with a nitro group on carbon (three)
Structure (SMILES),AC50 [1],AC50 [2],cell number change [%]
Cc1c(Cl)c([N+](=O)[O-])nn1CC(=O)NC(C)C1CC2CCC1C2 (stereo not given),,"18.4 µM [falling, partial curve]",8.36
CCCC(C)C(=O)Nc1ncc(S(=O)(=O)c2ccc([N+](=O)[O-])cc2)s1 (stereo not given),"25.9 µM [falling, single point]","8.2 µM [falling, partial curve, poor fit]",-31.9
COc1cc(NC(=O)C23CC4CC(C2)CC(n2cnc([N+](=O)[O-])n2)(C4)C3)cc(OC)c1,,"2.31 µM [rising, single point]",28.2

# The listing continues:

Structure (SMILES),AC50 [1],AC50 [2],cell number change [%]
O=C(NNC(=O)c1cccs1)c1ccncc1,,"3.26 µM [falling, partial curve, poor fit]",-1.41
N#Cc1cnn2c3c(cnc12)C(=O)N1CCc2ccccc2C1C3 (stereo not given),"4.61 µM [rising, full curve]","3.66 µM [rising, partial curve, poor fit]",40.4
CCOC(=O)C1Cc2c([nH]c3ccccc23)C(C)N1 (stereo not given),,"3.66 µM [rising, full curve]",
CCC(NC(=O)c1cc(COc2ccc(OC)cc2Cl)on1)c1ccncc1 (stereo not given),,,19.9
COc1ccc(CCNC(=O)CCC(=O)Nc2nnc(C(C)C)s2)cc1OC,"29.1 µM [rising, single point]","0.731 µM [falling, full curve]",33.3
Cc1ccc(C(=O)C(OC(=O)c2cnccn2)c2ccccc2)cc1 (stereo not given),,,14.6
Cc1oc2ccc(OC(=O)N3CCOCC3)cc2c1C(=O)OC(C)C,,"11.6 µM [rising, single point]",-4.71
COc1cc(/C=N/Nc2nncn2N)ccc1OCc1c(C)no[n+]1[O-],"29.1 µM [falling, single point]","29.1 µM [falling, single point]",-58
C[C@H](NC(=O)NCc1cccs1)C(=O)O,"0.291 µM [falling, full curve, poor fit]","23.1 µM [falling, partial curve]",
C/C(=N\NC(=O)COc1ccccc1-c1ccccc1)c1ccccn1,,"0.58 µM [falling, full curve]",-28.4
O=C1c2ccccc2C(=O)N1Cc1ccccc1F,,"6.51 µM [falling, partial curve, poor fit]",
Cc1cc(NC(=O)CSc2[nH]c(=O)cc(C(F)(F)F)c2C#N)no1,"10.3 µM [rising, partial curve, poor fit]",,39.8
O=C(CSc1nnc(CNC(=O)c2ccccc2F)o1)Nc1ccc2c(c1)OCCO2,"9.2 µM [rising, partial curve, poor fit]","29.1 µM [rising, single point]",35.9
O=C(COC(=O)COc1ccccc1Cc1ccccc1)Nc1cccnc1Cl,"29.1 µM [rising, single point]",,133
N#Cc1ccc(Cn2ccnc2C(=O)Nc2ccccc2)cc1,"2.06 µM [rising, partial curve]","6.51 µM [rising, single point]",21.2
CCN(CC)c1ccc(/C=C(/C#N)c2nc3ccc(C)cc3[nH]2)c(OC(C)C)c1,"20.6 µM [falling, partial curve]","4.11 µM [falling, full curve]",-95.4
Cc1ccc(C(=O)N2CCOCC2)cc1S(=O)(=O)Nc1cccc(C)c1C,,"29.1 µM [falling, single point]",-29.5
COc1ccc(C(=O)NC2CCCCCC2)cc1S(=O)(=O)N1CCCc2ccccc21,"1.64 µM [rising, partial curve]","1.84 µM [rising, partial curve]",
CCCOC(=O)c1[nH]c2c(c1C)C(=O)CC(c1cc(OC)c(OC)c(OC)c1)C2 (stereo not given),"16.4 µM [falling, single point]","29.1 µM [falling, single point]",-42.6
COc1ccccc1NC(=S)NCC1CCCO1 (stereo not given),"0.58 µM [rising, partial curve, poor fit]","0.517 µM [rising, partial curve, poor fit]",-2.25
COc1ccc(C(=O)N/C(=C/c2cccs2)C(=O)NN)cc1OC,"16.4 µM [rising, single point]","23.1 µM [rising, single point]",32
CC(=C/c1ccccc1)/C=N/NC(=O)c1ccc2nc[nH]c2c1,"6.51 µM [rising, single point]","13 µM [rising, single point]",-42.1
Cc1ccccc1-c1nc(SCc2cccnc2)c2c(=O)n(C)c(=O)n(C)c2n1,"2.59 µM [rising, full curve]",,47.8
COCCn1c(C)cc(/C=C(\C#N)C(=O)OC(C)C(=O)Nc2ccc(NC(C)=O)cc2)c1C (stereo not given),"14.6 µM [rising, partial curve]",,206
COc1ccccc1NS(=O)(=O)c1cc(NC(=O)c2ccco2)ccc1N1CCOCC1,"0.731 µM [rising, full curve, poor fit]","0.58 µM [rising, single point]",19.5
CC1CCN(CC(=O)Nc2ccccc2C#N)CC1,,"18.4 µM [falling, partial curve]",-22.2
CCc1ccc(OCC(=O)N2CCN(c3ccccn3)CC2)c(Br)c1,"3.26 µM [rising, partial curve, poor fit]",,15.7
